Experimental data published in patent US20240209053A1 (Protagonist Therapeutics, Inc., priority 2021, published 2024).
At least one structure is not confirmed: it was looked up by name or label, or the drawing left a doubt. Numbered stars: 1 amine (or outer) side, 2 acyl side, 3 side chain; on linkers, the order of the positions; unused ones are H or OH. Bridge positions count the residues as written; N and C are the ends. Square brackets hold non-standard residues; d marks the D form. Side chains are listed from the residue outwards. Peptide text beside a SMILES is read from it. * marks the point of attachment. Nle(6-ylidene) = O=C([C@H](CCCC=[*:3])N[*:1])[*:2]; Dip = N[C@H](C(=O)O)C(c1ccccc1)c1ccccc1; Hag = O=C([C@H](CCC=[*:3])N[*:1])[*:2]; Palmitoyl = CCCCCCCCCCCCCCCC(=O)*; β3hF = N[C@H](CC(=O)O)Cc1ccccc1; Isovaleryl = CC(C)CC(=O)*; Ahx = NCCCCCC(=O)O

Legend:
ferroportin = target: T1, ferroportin (Homo sapiens, UniProt Q9NP59); assay: T47D cell-based ferroportin internalization assay in presence of 0.5% mouse serum albumin (MSA); conditions: T47D cells
T1 sequence (Q9NP59 1-571): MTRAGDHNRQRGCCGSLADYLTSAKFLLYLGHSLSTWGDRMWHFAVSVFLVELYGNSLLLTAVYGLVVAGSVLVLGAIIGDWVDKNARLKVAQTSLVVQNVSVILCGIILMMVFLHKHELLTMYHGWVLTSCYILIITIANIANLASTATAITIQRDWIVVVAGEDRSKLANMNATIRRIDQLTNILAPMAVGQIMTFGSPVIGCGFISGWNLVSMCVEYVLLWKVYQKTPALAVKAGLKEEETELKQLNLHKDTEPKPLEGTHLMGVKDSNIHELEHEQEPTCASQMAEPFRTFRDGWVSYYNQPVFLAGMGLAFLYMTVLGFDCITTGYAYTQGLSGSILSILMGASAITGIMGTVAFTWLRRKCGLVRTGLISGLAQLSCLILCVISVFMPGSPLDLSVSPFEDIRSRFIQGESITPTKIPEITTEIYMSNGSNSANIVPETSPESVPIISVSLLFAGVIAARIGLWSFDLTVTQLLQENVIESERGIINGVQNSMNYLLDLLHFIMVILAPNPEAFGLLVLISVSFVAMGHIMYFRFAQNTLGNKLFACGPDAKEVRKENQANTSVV
Protocol: The potency of the peptides in causing ferroportin internalization was evaluated in a T47D cell-based assay. […] In this internalization assay, the potency of the test peptides was evaluated in presence of serum albumin which is the main protein component in the blood. T47D cells were maintained in RPMI media (containing required amount of fetal bovine serum) and regularly sub-cultured. In preparation for the assay, the cells were seeded in 96-well plates at a density of 80-100 k cells per well in 100 ul volume and allowed to rest overnight. On the next day, test peptides were first prepared in dilution series (10-point series, starting concentration of ˜5 μM, typically 3-4×fold dilution steps), all with 0.5% mouse serum albumin (MSA purified from mouse serum; Sigma, A3139). The test peptide dilution series were allowed to incubate at room temperature for 30 min. Then the media was aspirated from the 96-well cell plate and test peptide dilution series were added. After 1 hr incubation, the media with test peptides was aspirated out and AF647-conjugated detection peptide was added at fixed concentration of 200 nM. The AF647-conjugated detection peptide was previously verified to bind to ferroportin and cause its internalization. The cells were washed again after a 2 hr incubation in preparation for flow cytometry analysis. The Median Fluorescence Intensity (MFI) of the AF647-positive population was measured (after removing dead cells and non-singlets from the analysis). The MFI values were used to generate a dose-response curve and obtain IC50 potencies for the test peptides. The IC50 potencies were calculated by using 4-parameter non-linear fitting function in Graphpad Prism (Table 6A).

[1] = target: T2, human ferroportin (SLC40A1) (Homo sapiens, UniProt Q9NP59); assay: FPN activity assay: internalization/degradation of ferroportin-GFP in stably transfected HEK293 cells (decrease in GFP fluorescence); type: cell-based; conditions: compound incubated at least 18 hours
T2 sequence (Q9NP59 1-571): T1 sequence (Q9NP59 1-571)
Protocol: Peptide analogues were tested in vitro for induction of internalization of the human ferroportin protein. Following internalization, the ferroporin protein is degraded. The assay used (FPN activity assay) measures a decrease in fluorescence of the receptor. The cDNA encoding the human ferroportin (SLC40A1) was cloned from a cDNA clone from Origene (NM_014585). The DNA encoding the ferroportin was amplified by PCR using primers also encoding terminal restriction sites for subcloning, but without the termination codon. The ferroportin receptor was subcloned into a mammalian GFP expression vector containing a neomycin (G418) resistance marker in such that the reading frame of the ferroportin was fused in frame with the GFP protein. The fidelity of the DNA encoding the protein was confirmed by DNA sequencing. HEK293 cells were used for transfection of the ferroportin-GFP receptor expression plasmid. The cells were grown according to standard protocol in growth medium and transfected with the plasmids using Lipofectamine (manufacturer's protocol, Invitrogen). The cells stably expressing ferroportin-GFP were selected using G418 in the growth medium (in that only cells that have taken up and incorporated the cDNA expression plasmid survive) and sorted several times on a Cytomation MoFloTM cell sorter to obtain the GFP-positive cells (488 nm/530 nm). The cells were propagated and frozen in aliquots. […] Compound was added to desired final concentration for at least 18 hours in the incubator. […] Compound was added to desired final concentration for at least 18 hours but no more than 24 hours in the incubator. […] The “RI” in RI-Mini-Hepcidin refers to Retro Inverse. A retro inverse peptide is a peptide with a reversed sequence in all D amino acids. An example is that […] becomes […]. The EC50 of these reference compounds for ferroportin internalization/degradation was determined according to the FPN activity assay described above. These peptides served as control standards.

## CCCCCCCCCCCCCCCC(=O)NCCCCCC(=O)NCCCC[C@H](NC(=O)C[C@H](Cc1ccccc1)NC(=O)[C@@H]1CCCC=CC[C@H](NC(=O)CC(C)C)C(=O)N[C@@H]([C@@H](C)O)C(=O)N[C@@H](Cc2c[nH]cn2)C(=O)N[C@@H](C(c2ccccc2)c2ccccc2)C(=O)N2CCC[C@H]2C(=O)N[C@@H](C)C(=O)N[C@@H]([C@@H](C)CC)C(=O)N1)C(=O)N[C@H](CCCCN)C(N)=O [Compd 32]
ferroportin
  IC50: 1 to 10 nM
[1]
  IC50: 1 to 10 nM

## CCCCCCCCCCCCCCCC(=O)NCCCCCC(=O)NCCCC[C@@H]1NC(=O)C[C@H](Cc2ccccc2)NC(=O)[C@@H]2CCCC=CCCC[C@H](NC(=O)CC(C)C)C(=O)N[C@@H]([C@@H](C)O)C(=O)N[C@@H](Cc3c[nH]cn3)C(=O)N[C@@H](C(c3ccccc3)c3ccccc3)C(=O)N3CCC[C@H]3C(=O)N[C@@H](CSSC[C@@H](C(N)=O)NC(=O)[C@@H](CCCCN)NC1=O)C(=O)N[C@@H]([C@@H](C)CC)C(=O)N2 [Compd 80] (Isovaleryl-[Nle(6-ylidene)]TH[Dip]PCI[Nle(6-ylidene)][β3hF]K([Ahx-Palmitoyl])[dK]C-NH2; staple 1-8 (inferred); disulfide 6-12 (inferred))
ferroportin
  IC50: 10 to 100 nM
[1]
  IC50: 10 to 100 nM

## CCCCCCCCCCCCCCCC(=O)NCCCCCC(=O)NCCCC[C@@H]1NC(=O)C[C@H](Cc2ccccc2)NC(=O)[C@@H]2CCC=CCC[C@H](NC(=O)CC(C)C)C(=O)N[C@@H]([C@@H](C)O)C(=O)N[C@@H](Cc3c[nH]cn3)C(=O)N[C@@H](C(c3ccccc3)c3ccccc3)C(=O)N3CCC[C@H]3C(=O)N[C@@H](CSSC[C@@H](C(N)=O)NC(=O)[C@@H](CCCCN)NC1=O)C(=O)N[C@@H]([C@@H](C)CC)C(=O)N2 [Compd 79] (Isovaleryl-[Hag]TH[Dip]PCI[Hag][β3hF]K([Ahx-Palmitoyl])[dK]C-NH2; staple 1-8 (inferred); disulfide 6-12 (inferred))
ferroportin
  IC50: 100 to 500 nM
[1]
  IC50: 10 to 100 nM

## CC[C@H](C)[C@@H]1NC(=O)[C@H](C)NC(=O)[C@@H]2CCCN2C(=O)[C@H](C(c2ccccc2)c2ccccc2)NC(=O)[C@H](Cc2c[nH]cn2)NC(=O)[C@H]([C@@H](C)O)NC(=O)[C@@H](NC(=O)CC(C)C)CC/C=C\CC[C@@H](C(=O)N[C@H](CC(=O)N[C@@H](CCCCNC(=O)COCCOCCNC(=O)COCCOCCNC(=O)[C@H](CN)NC(=O)CCCCCCCCCCCCCCCCC(=O)O)C(=O)N[C@H](CCCCN)C(N)=O)Cc2ccccc2)NC1=O [Compd 85]
[1]
  IC50: 1 to 10 nM
